Data on five targets can be found in the supplement of paper PMC6411743.

Protein sequences, listed by entry. Tags and fused reporters are not part of them. Lines headed by an entry give the natural chain unless they say otherwise; changes in a name come on top.
UniProt Q9NXW2: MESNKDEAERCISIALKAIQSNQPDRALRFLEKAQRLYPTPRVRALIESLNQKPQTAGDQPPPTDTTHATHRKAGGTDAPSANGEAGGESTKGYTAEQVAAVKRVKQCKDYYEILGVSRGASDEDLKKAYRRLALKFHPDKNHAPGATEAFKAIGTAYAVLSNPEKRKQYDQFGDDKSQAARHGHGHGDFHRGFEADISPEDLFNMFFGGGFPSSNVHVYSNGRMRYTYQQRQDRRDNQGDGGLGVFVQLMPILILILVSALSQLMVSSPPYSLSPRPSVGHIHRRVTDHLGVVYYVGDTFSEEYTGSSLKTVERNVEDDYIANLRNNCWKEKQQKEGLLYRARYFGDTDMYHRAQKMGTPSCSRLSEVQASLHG
UniProt Q9Y4D8: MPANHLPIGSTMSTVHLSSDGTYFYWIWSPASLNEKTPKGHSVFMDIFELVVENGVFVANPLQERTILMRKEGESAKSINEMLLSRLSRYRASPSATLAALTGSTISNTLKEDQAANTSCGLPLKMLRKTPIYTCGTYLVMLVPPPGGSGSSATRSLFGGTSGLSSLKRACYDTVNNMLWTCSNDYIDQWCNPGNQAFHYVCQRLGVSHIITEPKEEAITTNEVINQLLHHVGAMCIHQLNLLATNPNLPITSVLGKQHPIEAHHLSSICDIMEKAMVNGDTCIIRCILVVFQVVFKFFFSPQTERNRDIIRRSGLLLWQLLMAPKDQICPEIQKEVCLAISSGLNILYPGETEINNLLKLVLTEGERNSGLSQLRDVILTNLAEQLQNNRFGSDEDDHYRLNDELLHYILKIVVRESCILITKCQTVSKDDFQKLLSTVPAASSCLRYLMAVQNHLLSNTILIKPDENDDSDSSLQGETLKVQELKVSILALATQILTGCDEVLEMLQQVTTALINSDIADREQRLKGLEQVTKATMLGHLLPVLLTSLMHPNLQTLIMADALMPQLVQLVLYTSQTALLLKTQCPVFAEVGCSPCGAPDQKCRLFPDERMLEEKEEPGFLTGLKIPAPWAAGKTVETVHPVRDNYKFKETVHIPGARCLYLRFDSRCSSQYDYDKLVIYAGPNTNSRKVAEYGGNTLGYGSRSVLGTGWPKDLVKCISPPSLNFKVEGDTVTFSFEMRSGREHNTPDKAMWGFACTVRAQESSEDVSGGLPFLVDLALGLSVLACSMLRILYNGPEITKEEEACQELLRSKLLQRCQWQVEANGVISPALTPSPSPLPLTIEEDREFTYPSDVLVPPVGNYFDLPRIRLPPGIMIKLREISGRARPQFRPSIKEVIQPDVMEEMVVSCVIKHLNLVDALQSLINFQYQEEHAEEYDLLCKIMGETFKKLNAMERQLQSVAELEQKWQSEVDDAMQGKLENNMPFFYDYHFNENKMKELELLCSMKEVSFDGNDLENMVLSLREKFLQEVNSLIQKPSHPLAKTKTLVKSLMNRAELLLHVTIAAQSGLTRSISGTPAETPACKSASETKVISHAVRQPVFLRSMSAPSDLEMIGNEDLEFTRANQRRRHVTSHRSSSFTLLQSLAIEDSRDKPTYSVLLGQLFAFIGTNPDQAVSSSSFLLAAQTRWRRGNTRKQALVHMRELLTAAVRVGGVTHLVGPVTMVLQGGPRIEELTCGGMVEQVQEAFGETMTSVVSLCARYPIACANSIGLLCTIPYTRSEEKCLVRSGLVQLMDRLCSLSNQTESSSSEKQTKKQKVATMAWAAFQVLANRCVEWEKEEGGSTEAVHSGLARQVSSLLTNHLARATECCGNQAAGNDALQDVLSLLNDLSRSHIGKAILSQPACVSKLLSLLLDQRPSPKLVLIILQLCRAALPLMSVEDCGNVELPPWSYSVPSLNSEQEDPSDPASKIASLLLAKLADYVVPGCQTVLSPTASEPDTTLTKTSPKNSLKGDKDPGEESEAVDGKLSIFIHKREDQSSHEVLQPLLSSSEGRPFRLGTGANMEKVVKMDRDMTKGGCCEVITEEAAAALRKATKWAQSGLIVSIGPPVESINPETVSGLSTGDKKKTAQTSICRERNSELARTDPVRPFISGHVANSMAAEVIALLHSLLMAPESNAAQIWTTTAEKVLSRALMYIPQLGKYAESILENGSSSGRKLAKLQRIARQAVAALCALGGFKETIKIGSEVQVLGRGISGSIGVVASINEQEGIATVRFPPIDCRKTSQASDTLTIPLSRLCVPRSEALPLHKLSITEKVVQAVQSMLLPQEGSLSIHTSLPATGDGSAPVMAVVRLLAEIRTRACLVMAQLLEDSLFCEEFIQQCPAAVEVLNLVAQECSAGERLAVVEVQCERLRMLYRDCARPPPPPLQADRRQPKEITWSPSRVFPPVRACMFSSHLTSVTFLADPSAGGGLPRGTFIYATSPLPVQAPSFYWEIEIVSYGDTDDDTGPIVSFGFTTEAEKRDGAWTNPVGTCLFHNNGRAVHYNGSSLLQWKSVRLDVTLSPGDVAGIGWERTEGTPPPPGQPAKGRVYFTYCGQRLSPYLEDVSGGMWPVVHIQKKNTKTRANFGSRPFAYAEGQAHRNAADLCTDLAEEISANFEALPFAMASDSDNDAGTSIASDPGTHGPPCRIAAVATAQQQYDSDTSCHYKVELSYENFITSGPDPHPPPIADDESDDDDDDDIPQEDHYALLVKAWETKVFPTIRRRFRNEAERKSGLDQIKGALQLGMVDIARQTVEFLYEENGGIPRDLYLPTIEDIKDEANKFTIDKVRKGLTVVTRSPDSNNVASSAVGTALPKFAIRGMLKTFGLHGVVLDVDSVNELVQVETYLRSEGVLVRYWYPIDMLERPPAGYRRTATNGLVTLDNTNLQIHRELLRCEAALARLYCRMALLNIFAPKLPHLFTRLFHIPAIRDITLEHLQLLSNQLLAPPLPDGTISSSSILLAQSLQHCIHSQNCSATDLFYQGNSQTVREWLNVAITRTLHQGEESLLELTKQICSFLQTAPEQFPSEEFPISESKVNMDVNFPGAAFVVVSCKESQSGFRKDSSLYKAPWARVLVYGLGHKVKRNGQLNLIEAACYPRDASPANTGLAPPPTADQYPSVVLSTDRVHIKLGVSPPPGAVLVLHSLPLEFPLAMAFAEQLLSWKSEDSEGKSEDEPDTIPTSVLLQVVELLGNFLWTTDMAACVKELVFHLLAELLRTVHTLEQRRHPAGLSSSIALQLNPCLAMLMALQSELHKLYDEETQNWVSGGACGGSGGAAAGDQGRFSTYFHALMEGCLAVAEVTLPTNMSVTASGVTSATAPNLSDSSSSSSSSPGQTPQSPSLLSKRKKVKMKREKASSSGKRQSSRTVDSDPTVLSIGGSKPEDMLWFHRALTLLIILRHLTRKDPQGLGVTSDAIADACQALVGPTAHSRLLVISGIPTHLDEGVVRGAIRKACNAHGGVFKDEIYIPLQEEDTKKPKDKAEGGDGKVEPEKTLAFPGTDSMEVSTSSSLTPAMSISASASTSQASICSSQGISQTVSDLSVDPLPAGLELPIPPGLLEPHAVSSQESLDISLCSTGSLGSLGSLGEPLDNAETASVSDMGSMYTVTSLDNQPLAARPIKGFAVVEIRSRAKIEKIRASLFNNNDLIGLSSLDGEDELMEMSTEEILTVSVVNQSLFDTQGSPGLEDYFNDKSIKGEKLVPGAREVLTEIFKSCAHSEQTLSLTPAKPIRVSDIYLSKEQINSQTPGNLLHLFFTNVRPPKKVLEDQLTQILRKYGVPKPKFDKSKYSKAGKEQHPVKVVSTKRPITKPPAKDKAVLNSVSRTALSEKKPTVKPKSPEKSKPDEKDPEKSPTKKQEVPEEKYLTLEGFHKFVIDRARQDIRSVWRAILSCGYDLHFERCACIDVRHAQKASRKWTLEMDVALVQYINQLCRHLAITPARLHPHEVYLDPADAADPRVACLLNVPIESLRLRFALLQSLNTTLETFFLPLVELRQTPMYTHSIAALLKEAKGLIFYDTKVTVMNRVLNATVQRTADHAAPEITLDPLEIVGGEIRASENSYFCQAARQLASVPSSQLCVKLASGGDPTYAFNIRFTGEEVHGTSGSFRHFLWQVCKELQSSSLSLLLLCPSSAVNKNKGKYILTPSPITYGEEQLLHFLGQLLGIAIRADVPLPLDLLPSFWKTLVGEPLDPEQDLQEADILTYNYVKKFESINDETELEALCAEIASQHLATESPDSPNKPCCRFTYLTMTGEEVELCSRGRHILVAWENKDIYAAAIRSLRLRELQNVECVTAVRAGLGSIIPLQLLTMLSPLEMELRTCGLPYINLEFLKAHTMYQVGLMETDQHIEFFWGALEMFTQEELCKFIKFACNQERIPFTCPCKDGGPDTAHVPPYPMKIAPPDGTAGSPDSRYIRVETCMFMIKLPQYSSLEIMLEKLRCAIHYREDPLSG
UniProt Q8TF05: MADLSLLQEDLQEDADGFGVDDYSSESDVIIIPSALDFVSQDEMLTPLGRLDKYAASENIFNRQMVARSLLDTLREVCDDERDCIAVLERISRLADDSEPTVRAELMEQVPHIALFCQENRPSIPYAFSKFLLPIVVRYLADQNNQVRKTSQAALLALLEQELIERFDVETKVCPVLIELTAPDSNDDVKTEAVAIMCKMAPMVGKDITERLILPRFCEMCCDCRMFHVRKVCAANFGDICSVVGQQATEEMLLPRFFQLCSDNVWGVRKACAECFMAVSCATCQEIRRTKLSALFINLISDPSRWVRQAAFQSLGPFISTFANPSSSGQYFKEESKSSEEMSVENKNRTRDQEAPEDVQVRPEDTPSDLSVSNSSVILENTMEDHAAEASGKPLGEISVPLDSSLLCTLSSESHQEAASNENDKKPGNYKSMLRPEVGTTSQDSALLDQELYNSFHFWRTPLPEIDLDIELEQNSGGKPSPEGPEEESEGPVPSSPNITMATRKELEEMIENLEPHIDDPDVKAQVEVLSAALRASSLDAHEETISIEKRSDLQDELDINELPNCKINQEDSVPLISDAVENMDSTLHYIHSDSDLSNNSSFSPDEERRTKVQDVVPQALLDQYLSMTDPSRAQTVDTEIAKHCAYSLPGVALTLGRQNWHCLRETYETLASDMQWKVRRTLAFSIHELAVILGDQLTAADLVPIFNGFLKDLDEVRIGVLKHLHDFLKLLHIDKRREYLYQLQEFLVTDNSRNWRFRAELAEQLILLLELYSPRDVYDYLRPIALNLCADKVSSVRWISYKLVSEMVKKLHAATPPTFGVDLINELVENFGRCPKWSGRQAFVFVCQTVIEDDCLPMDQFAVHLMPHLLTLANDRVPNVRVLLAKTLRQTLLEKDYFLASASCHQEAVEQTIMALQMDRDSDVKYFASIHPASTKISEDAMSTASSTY
UniProt Q9UJ70, whole entry: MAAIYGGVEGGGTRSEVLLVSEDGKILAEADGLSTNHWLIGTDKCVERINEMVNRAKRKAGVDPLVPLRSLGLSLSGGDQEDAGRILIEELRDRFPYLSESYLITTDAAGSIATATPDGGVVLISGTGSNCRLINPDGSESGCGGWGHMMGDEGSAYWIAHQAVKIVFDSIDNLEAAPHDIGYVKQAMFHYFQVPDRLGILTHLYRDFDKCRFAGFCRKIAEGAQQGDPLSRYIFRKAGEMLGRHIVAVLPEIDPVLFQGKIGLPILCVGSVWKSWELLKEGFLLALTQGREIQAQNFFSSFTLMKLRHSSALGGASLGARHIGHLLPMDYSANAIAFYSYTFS

Compound in this assay: Nc1nc2c(ncn2[C@@H]2O[C@H](COP(=O)(O)OP(=O)(O)OP(=O)(O)O)[C@@H](O)[C@H]2O)c(=O)[nH]1 [guanosine triphosphate]
Kind of assay: NP40-soluble protein abundance relative to vehicle (solubility fold change) (ratio); higher = more soluble protein in presence of GTP. The procedure: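 Solubility proteome profiling in Jurkat crude lysate. Lysate was treated with Mg-GTP (0.1-10 mM) for 10 min at room temperature and 3 min at 37 °C, then solubilised with 0.8% NP40 and benzonase, followed by ultracentrifugation. Proteins were quantified by TMT10 LC-MS/MS; the value is the NP40-soluble abundance relative to the NP40-processed vehicle, from 3 independent experiments.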

± gives the standard deviation of the averaged measurements. The list shows a part of the results.

On to “J3KPS0 and related entries (UniProt Q9NXW2)”, for which the NP40-soluble protein abundance stood at 1.01 ± 0.065 (concentration: 0.1mM); 0.995 ± 0.088 (concentration: 0.5mM); 0.984 ± 0.083 (concentration: 1mM); 0.935 ± 0.064 (concentration: 2mM); 0.913 ± 0.066 (concentration: 4mM); 0.918 ± 0.1 (concentration: 6mM). Also, the NP40-soluble protein abundance runs as follows: (concentration: 8mM) 0.967 ± 0.082; (concentration: 10mM) 0.925 ± 0.063.
On to J3KPF0 (UniProt Q9Y4D8), for which the NP40-soluble protein abundance was 1.08 ± 0.021 (concentration: 0.1mM); 1.1 ± 0.061 (concentration: 0.5mM); 1.2 ± 0.14 (concentration: 1mM); 1.24 ± 0.12 (concentration: 2mM); 1.26 ± 0.18 (concentration: 4mM); 1.23 ± 0.18 (concentration: 6mM). The NP40-soluble protein abundance (concentration: 8mM) was found to be 1.23 ± 0.17 and the NP40-soluble protein abundance (concentration: 10mM) was 1.18 ± 0.2.
As to “J3QLK0 and related entries (UniProt P60763)”, the NP40-soluble protein abundance by setting is: (concentration: 0.1mM) 1.21 ± 0.22; (concentration: 0.5mM) 1.18 ± 0.17; (concentration: 1mM) 1.06 ± 0.15; (concentration: 2mM) 1.01 ± 0.25; (concentration: 4mM) 1.02 ± 0.17; (concentration: 6mM) 0.97 ± 0.16. The NP40-soluble protein abundance (concentration: 8mM) is 0.95 ± 0.12 and the NP40-soluble protein abundance (concentration: 10mM) is 0.876 ± 0.16.
For “J3KSS1 and related entries (UniProt Q8TF05)”, the NP40-soluble protein abundance came to 1.04 ± 0.041 (concentration: 0.1mM); 1.05 ± 0.0072 (concentration: 0.5mM); 1.02 ± 0.038 (concentration: 1mM); 0.99 ± 0.038 (concentration: 2mM); 0.98 ± 0.04 (concentration: 4mM); 0.97 ± 0.043 (concentration: 6mM). For the same target, the NP40-soluble protein abundance runs as follows: (concentration: 8mM) 0.963 ± 0.019; (concentration: 10mM) 0.948 ± 0.024.
For the target “H7C3G9 and related entries (UniProt Q9UJ70)”, the NP40-soluble protein abundance (concentration: 0.1mM) was found to be 1.029 ± 0.0052; the NP40-soluble protein abundance (concentration: 0.5mM) worked out at 1 ± 0.042; the NP40-soluble protein abundance (concentration: 1mM) amounted to 0.9 ± 0.037; the NP40-soluble protein abundance (concentration: 2mM) was 0.933 ± 0.054; the NP40-soluble protein abundance (concentration: 4mM) was found to be 0.915 ± 0.015; the NP40-soluble protein abundance (concentration: 6mM) is 0.886 ± 0.018. Further, the NP40-soluble protein abundance (concentration: 8mM) worked out at 0.862 ± 0.059 and the NP40-soluble protein abundance (concentration: 10mM) was 0.861 ± 0.057.
